# Test results as given in patent US11116848B2, “Selective UV crosslinking of peptides and functional moieties to immunoglobulins” (University of Notre Dame du Lac, priority 2013, dated 2021).
# Tested on: IgG^PSA
# Test: Relative degree of biotinylation of IgG^PSA (ELISA, streptavidin-HRP)
# Assay type: biochemical, mouse
smiles,measurement,setting,value
"O=C1N[C@H]2[C@H](CS[C@H]2CCCCC(=O)ON2C(=O)CCC2=O)N1 [NHS-Biotin, Biotin N-hydroxysuccinimide ester]",more biotinylation compared to the UV-NBS^Biotin,,2.14 fold
same,"slope of the linear regression line (relative degree of biotinylation), S",biotinylated IgG^PSA 0-0.25 nM adsorbed to ELISA plates,"39,495"
same,average number of biotins per IgG^PSA,manufacturer protocol,2.63
